Growth data for 40 compounds are collected here from the supplement of paper PMC8007513.

This is one part of the list. Repeats are few or missing, and single values can be far off.

The assay deals with Saccharomyces cerevisiae BY4743. In words: growth (OD600) with compound + IPBC relative to untreated control; higher = less growth inhibition. To be noted: compound concentration: 133 uM; IPBC concentration: 0.5 ug/ml; 20 h. The method, then: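 NMCCC compounds (133 uM) combined with IPBC (0.5 ug/ml) against Saccharomyces cerevisiae BY4743 in YPD, 96-well plates. Growth was read as OD600 at 20 h and expressed as % of the untreated control. Single pass.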
For `Cc1cc(C)c2[nH]c(C)c(CC(=O)N3CCOCC3)c2c1` + CCCCNC(=O)OCC#CI [3-iodo-2-propynyl butylcarbamate (IPBC)], the growth was found to be 89%. `CCCn1c(SCC(=O)Nc2ccc(C(N)=O)cc2)nc2ccc(C(F)(F)F)cc21` + CCCCNC(=O)OCC#CI [3-iodo-2-propynyl butylcarbamate (IPBC)]: the growth is 90.8%.

With `CCOC(=O)c1nc2ccccc2nc1Nc1cc(C)ccc1C` + CCCCNC(=O)OCC#CI [3-iodo-2-propynyl butylcarbamate (IPBC)], the growth was 103%. With `CCN(CC)c1ccc(C(=O)Nc2nc(C)c(SCC#N)s2)cn1` + CCCCNC(=O)OCC#CI [3-iodo-2-propynyl butylcarbamate (IPBC)], the growth amounted to 101%. Consider `CC(C)C(Nc1ccc(C(F)(F)F)cc1Cl)C(=O)OCC(=O)N1CCNC1=O` (stereo not given) + CCCCNC(=O)OCC#CI [3-iodo-2-propynyl butylcarbamate (IPBC)], for which the growth is 47.6%. `CCOC(=O)C1(C)\C=C(\NC2=CC=CC(=C2)C)C(=O)N1C3=CC=CC=C3` (stereo not given) + CCCCNC(=O)OCC#CI [3-iodo-2-propynyl butylcarbamate (IPBC)]: the growth is 87.5%.

With `CCC(C(=O)Nc1nc2nc(C)cc(O)n2n1)c1ccccc1` (stereo not given) + CCCCNC(=O)OCC#CI [3-iodo-2-propynyl butylcarbamate (IPBC)], the growth was 99.6%.

Regarding `CC1(CC[S](=O)(=O)C1)NC(=O)C/2=N/N(CC3=CC=CC=C3)C(=O)/C=C2` (stereo not given) + CCCCNC(=O)OCC#CI [3-iodo-2-propynyl butylcarbamate (IPBC)], the growth was 92.9%.

With `Cc1cnc(NC(=O)CN2CSCC2=O)s1` + CCCCNC(=O)OCC#CI [3-iodo-2-propynyl butylcarbamate (IPBC)], the growth is 89.5%. Consider `CCSc1nnc2c(=O)[nH]c(=O)[nH]c2n1` + CCCCNC(=O)OCC#CI [3-iodo-2-propynyl butylcarbamate (IPBC)], for which the growth is 90.8%.

Regarding `CCOC(=O)c1c(NC(=O)CN2CC(C)OC(C)C2)sc(C(=O)NC)c1C` (stereo not given) + CCCCNC(=O)OCC#CI [3-iodo-2-propynyl butylcarbamate (IPBC)], the growth came out at 70.6%.

`CN1C(=O)\C=C(\CNC(=O)CCNC(=O)C2=CC(=NC3=CC=CC=C23)O)N(C)C1=O` + CCCCNC(=O)OCC#CI [3-iodo-2-propynyl butylcarbamate (IPBC)]: the growth was 84.6%.

As for `COc1cc(Br)c(CC(=O)Nc2cc(C)ccn2)cc1OC` + CCCCNC(=O)OCC#CI [3-iodo-2-propynyl butylcarbamate (IPBC)], the growth stood at 90.1%. On to `CCOC(=O)c1c(S(=O)(=O)Nc2ccc(C)cn2)c(C)n(C)c1C` + CCCCNC(=O)OCC#CI [3-iodo-2-propynyl butylcarbamate (IPBC)], for which the growth came out at 106%. To `CCOC(=O)c1cnc(SCc2nc(-c3ccccc3)oc2C)nc1N` + CCCCNC(=O)OCC#CI [3-iodo-2-propynyl butylcarbamate (IPBC)] belongs 82.6%; to `CCC(=O)N[C@@H](Cc1ccccc1)C(=O)Nc1cc(C)on1` + CCCCNC(=O)OCC#CI [3-iodo-2-propynyl butylcarbamate (IPBC)], 96.1%; to `CSc1nnc(-c2cccnc2)n1CCO` + CCCCNC(=O)OCC#CI [3-iodo-2-propynyl butylcarbamate (IPBC)], 83%. On to `CC(=O)NC1C(=O)N(CCS(=O)(=O)c2ccccc2)c2ccc(F)cc21` (stereo not given) + CCCCNC(=O)OCC#CI [3-iodo-2-propynyl butylcarbamate (IPBC)], for which the growth was 101%. Turning to `CCCn1c(=O)[nH]c(=O)c2c3c(cnc21)C(=O)CCC3` + CCCCNC(=O)OCC#CI [3-iodo-2-propynyl butylcarbamate (IPBC)], the growth was 86.9%. To `CCCn1c(SCC(=O)Nc2ccc(CC#N)cc2)nnc1-c1ccncc1` + CCCCNC(=O)OCC#CI [3-iodo-2-propynyl butylcarbamate (IPBC)] belongs 103%. To `O=C(Nc1nccs1)c1cccnc1` + CCCCNC(=O)OCC#CI [3-iodo-2-propynyl butylcarbamate (IPBC)] belongs 87.9%.

For `CC(=O)NN1C(=O)c2ccccc2NC1c1cccnc1` (stereo not given) + CCCCNC(=O)OCC#CI [3-iodo-2-propynyl butylcarbamate (IPBC)], the growth stood at 91.4%. Regarding `CCCc1ccc(C(O)CSc2nnc(O)n2C2CC2)cc1` (stereo not given) + CCCCNC(=O)OCC#CI [3-iodo-2-propynyl butylcarbamate (IPBC)], the growth stood at 102%. In the case of `CC(C)CCN1CCC(CNS(=O)(=O)c2ccc3c(c2)C(C)(C)C(=O)N3C)CC1` + CCCCNC(=O)OCC#CI [3-iodo-2-propynyl butylcarbamate (IPBC)], the growth worked out at 108%. For `Cc1noc(C)c1C(=O)OCC(=O)NCC1CCCO1` (stereo not given) + CCCCNC(=O)OCC#CI [3-iodo-2-propynyl butylcarbamate (IPBC)], the growth was 89.8%. Consider `CC1CCCCC1NC(=O)CCNS(=O)(=O)c1ccc2nc(O)ccc2c1` (stereo not given) + CCCCNC(=O)OCC#CI [3-iodo-2-propynyl butylcarbamate (IPBC)], for which the growth came to 94.1%. To `CN(Cc1ccc(Cl)s1)C(=O)CSc1n[nH]c(-c2cccs2)n1` + CCCCNC(=O)OCC#CI [3-iodo-2-propynyl butylcarbamate (IPBC)] belongs 97.1%; to `COc1ccccc1NC(=O)Nc1ccc2c(c1)C(=O)OC2` + CCCCNC(=O)OCC#CI [3-iodo-2-propynyl butylcarbamate (IPBC)], 80.5%; to `CC(=O)ON1C(C)(C)Cc2noc(N)c2C1(C)C` + CCCCNC(=O)OCC#CI [3-iodo-2-propynyl butylcarbamate (IPBC)], 86.6%. On to `CN(CCOC1=CC=CC=C1)[S](=O)(=O)\C2=C\N(C)C(=O)N(C)C2=O` + CCCCNC(=O)OCC#CI [3-iodo-2-propynyl butylcarbamate (IPBC)], for which the growth was 114%. On to `CCC(C)c1ccc(NC(=O)c2cnn3c(C(F)F)cc(C)nc23)cc1` (stereo not given) + CCCCNC(=O)OCC#CI [3-iodo-2-propynyl butylcarbamate (IPBC)], for which the growth was 95.2%. With `COC(=O)C1=CC=C(CN(C)C(=O)\C2=N\N(C(=O)CC2)C3=CC(=CC=C3C)C)C=C1` + CCCCNC(=O)OCC#CI [3-iodo-2-propynyl butylcarbamate (IPBC)], the growth stood at 91%. As for `Cc1c(C(=O)Nc2ccc(C(=O)O)cc2)oc2c1C(=O)CC(C)(C)C2` + CCCCNC(=O)OCC#CI [3-iodo-2-propynyl butylcarbamate (IPBC)], the growth worked out at 104%. For `COCCN1\C=C(NC(=O)C2=CC3=C(CCC(C3)C(C)(C)C)S2)/C=C\C1=O` (stereo not given) + CCCCNC(=O)OCC#CI [3-iodo-2-propynyl butylcarbamate (IPBC)], the growth worked out at 113%. Take `CCCOc1ccc(CN(C(=O)c2nc(SC)ncc2Cl)C2CCS(=O)(=O)C2)cc1` (stereo not given) + CCCCNC(=O)OCC#CI [3-iodo-2-propynyl butylcarbamate (IPBC)]: the growth turned out to be 97.7%. For the compound `CCOC(=O)Cn1c(-c2cnn(CC)c2)nc2ccccc21` + CCCCNC(=O)OCC#CI [3-iodo-2-propynyl butylcarbamate (IPBC)], the growth was determined as 103%. As to `CN(C)[S](=O)(=O)C/1=C/N(CC(=O)C2=C(C)[N](CC3CCCO3)C(=C2)C)C(=O)/C=C1` (stereo not given) + CCCCNC(=O)OCC#CI [3-iodo-2-propynyl butylcarbamate (IPBC)], the growth was 102%. With `CC(C)(C)Nc1nnc(SCc2nc(Cc3ccccc3)no2)s1` + CCCCNC(=O)OCC#CI [3-iodo-2-propynyl butylcarbamate (IPBC)], the growth is 107%.

As for `CC(C)CCNC(=O)c1cnn2c3c(cnc12)CCCC3` + CCCCNC(=O)OCC#CI [3-iodo-2-propynyl butylcarbamate (IPBC)], the growth amounted to 104%. Regarding `CCOC(F)(C(F)(F)F)C(F)(F)OC(F)(CC(F)(F)F)\C1=N\CCN1` (stereo not given) + CCCCNC(=O)OCC#CI [3-iodo-2-propynyl butylcarbamate (IPBC)], the growth came to 100%.
